Tested on: SK-Hep-1 human hepatocellular cancer
Experiment: SK-Hep-1 human hepatocellular cancer xenografts in nude mice
Assay type: in vivo
Details: vs control; 10 μg/day s.c., day 135
Experimental: SK-Hep-1 cancers were transplanted s.c. into both flank areas of 66 female nude mice, and allowed to grow for 47 days before starting the treatment with GH-RH antagonists. The mice were randomly assigned into 4 experimental groups with 8 animals in each group and received single daily injections for 135 days as follows: 1. Control (vehicle solution); 2. JMR-132 (10 μg/day s.c.); 3. Peptide 1109 (5 μg/day s.c.); 4. Peptide 1109 (10 μg/day s.c.). Tumor volumes were measured once a week. The experiment was ended on day 135 by sacrificing the mice under Isoflurane anesthesia. Resulting tumors were cleaned, weighed, and snap-frozen until further analyses. Statistical analyses of the measurement results were done by two-tailed t-test, p<0.05 being considered significant. Data are presented as the means±S.E.

| Substance | Statistical significance of the inhibitory effect |
| --- | --- |
| [PhAc^0-Tyr^1, D-Arg^2, Cpa^6, Ala^8, Har^9, Tyr(Me)^10, His^11, Abu^15, His^20, Nle^27, D-Arg^28, Har^29]hGH-RH(1-29)NH2 [JMR-132, reference compound] | not significant |
| [PhAc^0-Tyr^1, D-Arg^2, Cpa^6, Ala^8, Har^9, Tyr(Me)^10, His^11, Abu^15, Glu^17, His^20, Nle^27, D-Arg^28, Har^29]hGH-RH(1-29)NH2 [Peptide 1109] | statistically significant |
